From US20210261524A1, “THERAPEUTIC COMPOUNDS AND COMPOSITIONS” (Exithera Pharmaceuticals, Inc., priority 2018, published 2021)
At least one structure is not confirmed: it was looked up by name or label, or the drawing left a doubt.

Tested on: blood coagulation components
Assay type: in vivo
Conditions: coagulation parameters
Procedure: The following parameters and endpoints were evaluated in this study: mortality, body weight, physical, clinical pathology parameters (hematology and coagulation), […], and bioanalytical parameters.
The vehicle and test article were administered via intravenous (IV) infusion once on Day 1 for 135 minutes (initiated 30 minutes prior to starting the Cardiopulmonary Bypass (CPB) and continuing for 105 minutes of CPB). Group 2 animals received a […] IV bolus dose immediately prior to the start of IV infusion. Group 3, 4, and 5 animals received a 10 mg/kg IV bolus dose prior to the start of the IV infusion; with the CPB machine primed with test article at 10 μg/mL.
Infusion of the Compound 1 was started 30 minutes prior to the animal being placed on the CPB pump. The CPB pump was primed with 0.9% saline.
Venous and arterial sheaths were flushed with the Compound 1 at a concentration of 10 μg/mL. An IV bolus dose of the test article was administered immediately prior to the start of the infusion. Infusion of Compound 1 was started 30 minutes prior to the animal being placed on the CPB pump. The CPB […] was primed with 10 μg/mL of the Compound 1 prior to initiation of the CPB pump.
An IV bolus dose of the Compound 1 was administered immediately prior to the start of the infusion. […]

SMILES: C[C@@H](NC(=O)N1C(=O)[C@H](Cc2ccnc(N)c2)[C@H]1C(=O)O)C1CCCCC1 [Compound 1, (2S,3R)-3-((2-aminopyridin-4-yl)methyl)-1-(((R)-1-cyclohexylethyl)carbamoyl)-4-oxoazetidine-2-carboxylic acid]
- selectivity of anticoagulant effects: selective to inhibition of activated partial thromboplastin time (aPTT)
